41 molecules from PubChem BioAssay AID2685 (National Center for Advancing Translational Sciences (NCATS), 2010) can be followed below.

This is one part of the list. Shown are side measurements of this screen, not its main read-out; they come without a call. Compounds called inactive in the main read-out are mostly missing here. Words in brackets tell the shape of the fitted curve; partial curves, single points and poor fits give uncertain potencies.

A short description of this assay: qHTS Assay for Lipid Storage Modulators in Drosophila S3 Cells.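 On cell number change: cells counted by Cell Tracker Red CMTPX staining in the red channel.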 The following applies: BODIPY lipid droplet fluorescence, 18-24 h; for cell number change: measured here: cell count max response, cells fed with added oleic acid. In short, it runs like this: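 Laser-scanning cytometry quantifies lipid droplet accumulation (500–530 nm total intensity; droplet/cell object ratio) in oleic acid-fed (400 uM added) Drosophila S3 cells treated with a concentration series. 20 uM Triacsin C defined 100% inhibition.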
A general note: Quantitative high-throughput screening tests each substance at several concentrations.

Where [1] appears, read: measured here: lipid fluorescence (Fed channel) AC50, cells fed with added oleic acid.
Setting [2] is: measured here: cell number channel AC50, cells fed with added oleic acid.

With `Cc1ccccc1CSCC(=O)NNC(=S)NCC1CCCO1` (stereo unspecified), the cell number change came out at 5.49%. The AC50 under setting [1] is 29.1 µM [rising, single point].

As to `CCCc1cc(=O)oc2cc(OC(=O)CN3C(=O)NC4(CCCC4)C3=O)ccc12`, the cell number change amounted to 21.4%. Moreover, the AC50 under setting [1] was 29.1 µM [rising, single point].

Regarding `O=C(N=Nc1c(O)n(Cc2ccccc2)c2ccccc12)c1cc2ccccc2cc1O`, the cell number change was -35.7%. In addition, the AC50 under setting [2] is 5.8 µM [falling, full curve].

Take `CCCCNC(=O)CSc1nc2ccc(N3CCOCC3)cc2c(=O)n1Cc1ccc(OC)cc1`: the cell number change was -59.6%. Besides, the AC50 under setting [2] is 29.1 µM [falling, single point]. In addition, under setting [1], the AC50 is 29.1 µM [falling, single point].

As to `COc1ccccc1Cc1noc(C(C)(C)NC(=O)c2ccccc2)n1`, the cell number change turned out to be 2.06%.

In the case of `COc1ccc(S(=O)(=O)N2CCCC2CNC(=O)C(=O)Nc2cccc(F)c2)cc1` (stereo unspecified), the cell number change was found to be 17.1%.

Regarding `CC(NC(=O)c1cc2cc(Br)ccc2oc1=N)c1ccccc1` (stereo unspecified), the cell number change is -17.3%.

As for `CCOC(=O)N1CCN(C(=O)CN(Cc2ccc(Cl)cc2)S(C)(=O)=O)CC1`, the cell number change is 12.6%. Moreover, the AC50 under setting [1] is 20.6 µM [rising, partial curve].

Turning to `COc1cccc(CN2CCN(CC#Cc3ccccc3)CC2CCO)c1` (stereo unspecified), the cell number change is 15.4%. Moreover, the AC50 under setting [1] is 16.4 µM [rising, partial curve].

For the molecule `CCOC(=O)C1CCCN(S(=O)(=O)c2c(C)[nH]c(C)c2C(=O)N2CCCC2)C1` (stereo unspecified), the cell number change was -14.7%. Besides, under setting [1], the AC50 is 1.46 µM [falling, single point].

With `O=C(O)/C=C/c1coc2ccc(F)cc2c1=O`, the cell number change is 10.5%. The AC50 under setting [1] was 6.51 µM [falling, single point].

On to `Cn1c(=O)c2c(nc(SCc3cccnc3)n2Cc2ccc(F)cc2)n(C)c1=O`, for which the cell number change is -31.1%. In addition, under setting [2], the AC50 was 0.00517 µM [falling, full curve, poor fit]. The AC50 under setting [1] is 0.00651 µM [falling, full curve, poor fit].

As to `COc1ccc(-n2c(=S)[nH]c3cc(C(=O)O)ccc3c2=O)cc1`, the cell number change came out at 6.91%. In addition, the AC50 under setting [2] was 2.31 µM [rising, partial curve, poor fit]. Also, under setting [1], the AC50 was 3.66 µM [rising, partial curve].

With `Cc1ccc(C2=[N+]([O-])C(C)(C)CC2)cc1`, the cell number change is -15.1%. Moreover, under setting [1], the AC50 was 2.06 µM [falling, partial curve, poor fit].

With `O=c1c(Cl)c(N2CCOCC2)cnn1-c1ncc(C(F)(F)F)cc1Cl`, the cell number change was determined as 7.46%. The AC50 under setting [1] was 0.13 µM [falling, full curve, poor fit].

Turning to `CCOc1ccc(C(=O)C2CCN(C(=O)c3ccccc3C(=O)O)CC2)cc1`, the cell number change is 15.9%.

For `Cc1ccn2c(C(=O)CSc3ccccc3)c(C)nc2c1`, the cell number change was found to be 23.9%.

Take `COc1ccc(C2CC(c3ccccc3)Nc3nc(NC(=O)c4ccco4)nn32)cc1` (stereo unspecified): the cell number change turned out to be 14.7%. Besides, the AC50 under setting [1] is 0.13 µM [falling, full curve, poor fit].

In the case of `O=C(Nc1nnc(S(=O)(=O)N2CCCCCC2)s1)c1ccc(Cl)cc1`, the cell number change is -15%.

As for `COc1ccc(CCC(=O)NNC(=O)Nc2ccc(OC)c(OC)c2)cc1`, the cell number change amounted to 8.91%.

Take `Cc1nn(-c2ccc(F)cc2)c2sc(C(=O)OCC(=O)N3CCC(C)CC3)cc12`: the AC50 under setting [2] was 0.517 µM [rising, single point].

Take `CC1(NC(=O)Cn2cc(C(F)(F)F)ccc2=O)CCS(=O)(=O)C1` (stereo unspecified): the cell number change worked out at 13%. In addition, the AC50 under setting [1] is 6.51 µM [falling, single point].

As to `Cc1ccc(Nc2ccc(N)cc2S(=O)(=O)O)cc1`, the cell number change is -43.6%. Moreover, the AC50 under setting [2] was 29.1 µM [falling, single point]. Further, the AC50 under setting [1] is 29.1 µM [falling, single point].

`O=C(CNS(=O)(=O)c1ccc(Br)cc1)Nc1ccc2c(c1)OCCO2`: the cell number change came to 1.66%. For the same molecule, the AC50 under setting [1] was 6.51 µM [falling, single point].

`Cn1cccc1-c1cc(C(=O)N/N=C/C=C/c2ccccc2)[nH]n1`: the cell number change was 10.9%. The AC50 under setting [2] was 0.058 µM [rising, full curve, poor fit].

In the case of `CCOc1ccc(CCNC(=O)COC(=O)CNS(=O)(=O)c2ccc(NC(C)=O)cc2)cc1OCC`, the cell number change was -49.7%. For the same molecule, under setting [2], the AC50 was 0.164 µM [falling, full curve, poor fit]. In addition, under setting [1], the AC50 was 0.82 µM [falling, full curve].

Take `CCCC(=O)Nc1nc2nc(-c3ccccc3)cc(=O)n2[nH]1`: the cell number change stood at 6.43%. For the same molecule, the AC50 under setting [1] was 29.1 µM [falling, single point].

`CCOC(=O)/C(C#N)=C1/C=CN(c2ccccc2)C=N1`: the cell number change is -0.78%.

Consider `CCOC(=O)N1CCC(NC(=O)CN2C(=O)CCSc3ccccc32)CC1`, for which the cell number change amounted to 19.6%. The AC50 under setting [1] was 6.51 µM [falling, single point].

For the molecule `Cn1cccc1C(=O)OCC(=O)c1cc2ccccc2o1`, the cell number change is -0.753%.

For `Cc1cc(Br)c(NC(=O)C(C)Sc2nnnn2C)c(Br)c1` (stereo unspecified), the cell number change is -25.9%. Also, the AC50 under setting [1] was 5.8 µM [falling, full curve, poor fit].

As to `CCCN(Cc1nnc(-c2cccs2)o1)C(=O)c1cc(S(=O)(=O)N2CCOCC2)ccc1C`, the cell number change is -3.08%. The AC50 under setting [1] is 0.92 µM [falling, full curve].

In the case of `Nc1nc(SCC(=O)Nc2ccc(Oc3ccccc3)cc2)n[nH]1`, the cell number change is 37.7%. Further, under setting [2], the AC50 was 0.0103 µM [rising, full curve, poor fit].

`CCCOc1ccc(C2CC(=O)Nc3cc(OC)c(OC)cc32)cc1` (stereo unspecified): the cell number change is -33.6%. Also, the AC50 under setting [2] is 20.6 µM [falling, single point].

`Cn1cccc1Cc1nnc(SCC(=O)NC2CCCC2)n1-c1ccc(F)cc1`: the cell number change was found to be 0.902%.

In the case of `COc1ccc(Cl)cc1NC(=O)C(C)N(C)Cc1ccc(C(F)(F)F)cc1` (stereo unspecified), the cell number change was -19.8%.

Take `CCC(=O)NC(=S)Nc1cccc(C(C)=O)c1`: the cell number change stood at 19.7%. Under setting [2], the AC50 is 3.66 µM [rising, single point]. Besides, under setting [1], the AC50 was 23.1 µM [rising, single point].

In the case of `O=C(c1ccc(Cl)c(S(=O)(=O)N2CCCCCC2)c1)N1CCN(CCO)CC1`, the cell number change was -44.1%. Under setting [2], the AC50 was 3.66 µM [falling, full curve]. The AC50 under setting [1] was 29.1 µM [falling, single point].

For `CCCCCCCSc1nnc(N)s1`, the cell number change was determined as 2.26%. For the same molecule, the AC50 under setting [1] was 0.291 µM [falling, full curve, poor fit].

As to `CCOc1ccc(CC(C(=O)NN)C(=O)NN)cc1CN(C)C`, under setting [1], the AC50 is 6.51 µM [falling, single point].

On to `COc1ccc(CNC(=O)[C@H](CCSC)NC(=O)N2CCn3c2nc2ccccc23)cc1`, for which the cell number change stood at 20.2%. Further, the AC50 under setting [1] is 13 µM [rising, partial curve, poor fit].

As a reminder, the AC50 is the midpoint of the concentration-response curve, whichever way the signal moves. Read a high AC50 as weaker potency.
